{"source": "patent US20080113101A1", "about": "“ORGANIC-ELECTROLUMINESCENCE-MATERIAL-CONTAINING SOLUTION, METHOD FOR FORMING THIN FILM OF ORGANIC ELECTROLUMINESCENCE MATERIAL, THIN FILM OF ORGANIC ELECTROLUMINESCENCE MATERIAL AND ORGANIC ELECTROLUMINESCENCE DEVICE” (Idemitsu Kosan Co., Ltd., priority 2006, published 2008)", "assay": "Organic EL device with luminescent layer spin-coated from the ink", "details": "device of Example 47; H10: ink of Example 28 with Compound H10 instead of H4", "data": [{"smiles": "c1ccc(-c2ccccc2-c2ccc3c(-c4ccccc4)c4ccccc4c(-c4ccccc4)c3c2)cc1", "note": "[Compound H10]", "values": [{"measurement": "luminescence efficiency", "value": 4.1, "unit": "cd/A"}]}]}
